Measurements reported in the supplement of paper PMC10849652.
Some of the results follow.

Sequences of proteins named here, by UniProt entry; tags and fusion partners are left off. A change or cut given only in a name is not applied to a line headed by its entry.
UniProt Q7Z388: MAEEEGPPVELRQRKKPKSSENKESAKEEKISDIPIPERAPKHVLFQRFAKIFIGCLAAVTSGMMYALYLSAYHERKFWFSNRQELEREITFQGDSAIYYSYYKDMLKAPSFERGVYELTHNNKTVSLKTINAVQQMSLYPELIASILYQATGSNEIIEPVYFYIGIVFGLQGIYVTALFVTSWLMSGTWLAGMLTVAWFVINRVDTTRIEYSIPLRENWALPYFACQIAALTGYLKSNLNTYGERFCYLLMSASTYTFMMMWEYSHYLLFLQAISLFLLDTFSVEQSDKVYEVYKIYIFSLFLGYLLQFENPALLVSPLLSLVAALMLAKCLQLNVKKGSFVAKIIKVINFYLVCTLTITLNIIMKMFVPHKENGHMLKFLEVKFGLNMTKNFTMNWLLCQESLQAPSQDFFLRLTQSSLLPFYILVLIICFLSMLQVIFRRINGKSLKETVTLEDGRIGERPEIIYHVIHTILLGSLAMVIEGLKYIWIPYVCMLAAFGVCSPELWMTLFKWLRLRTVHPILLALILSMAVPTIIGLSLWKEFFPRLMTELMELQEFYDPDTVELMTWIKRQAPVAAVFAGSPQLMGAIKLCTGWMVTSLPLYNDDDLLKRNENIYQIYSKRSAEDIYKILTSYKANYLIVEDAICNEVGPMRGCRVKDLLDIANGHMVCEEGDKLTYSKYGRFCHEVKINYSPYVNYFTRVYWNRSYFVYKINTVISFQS
UniProt O75071: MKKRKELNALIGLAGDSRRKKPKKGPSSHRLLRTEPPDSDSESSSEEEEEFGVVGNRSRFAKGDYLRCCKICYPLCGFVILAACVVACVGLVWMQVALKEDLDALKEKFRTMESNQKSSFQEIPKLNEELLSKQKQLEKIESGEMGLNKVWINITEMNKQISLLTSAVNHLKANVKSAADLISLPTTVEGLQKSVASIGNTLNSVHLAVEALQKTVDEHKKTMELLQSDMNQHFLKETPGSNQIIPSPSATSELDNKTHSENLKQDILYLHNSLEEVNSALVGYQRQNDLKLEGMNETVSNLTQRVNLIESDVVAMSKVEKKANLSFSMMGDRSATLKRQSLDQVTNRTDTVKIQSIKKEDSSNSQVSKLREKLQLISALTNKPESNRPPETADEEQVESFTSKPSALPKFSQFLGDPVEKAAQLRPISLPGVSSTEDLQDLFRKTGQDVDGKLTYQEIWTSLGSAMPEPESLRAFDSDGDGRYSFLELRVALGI
UniProt Q56P03: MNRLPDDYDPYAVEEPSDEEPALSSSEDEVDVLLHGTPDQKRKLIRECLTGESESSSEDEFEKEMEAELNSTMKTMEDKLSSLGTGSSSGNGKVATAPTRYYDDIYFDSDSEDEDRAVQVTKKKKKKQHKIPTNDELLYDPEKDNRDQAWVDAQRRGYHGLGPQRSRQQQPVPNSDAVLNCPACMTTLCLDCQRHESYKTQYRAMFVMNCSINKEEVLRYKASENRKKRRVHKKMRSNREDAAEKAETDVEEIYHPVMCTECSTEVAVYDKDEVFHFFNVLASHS
UniProt Q92997: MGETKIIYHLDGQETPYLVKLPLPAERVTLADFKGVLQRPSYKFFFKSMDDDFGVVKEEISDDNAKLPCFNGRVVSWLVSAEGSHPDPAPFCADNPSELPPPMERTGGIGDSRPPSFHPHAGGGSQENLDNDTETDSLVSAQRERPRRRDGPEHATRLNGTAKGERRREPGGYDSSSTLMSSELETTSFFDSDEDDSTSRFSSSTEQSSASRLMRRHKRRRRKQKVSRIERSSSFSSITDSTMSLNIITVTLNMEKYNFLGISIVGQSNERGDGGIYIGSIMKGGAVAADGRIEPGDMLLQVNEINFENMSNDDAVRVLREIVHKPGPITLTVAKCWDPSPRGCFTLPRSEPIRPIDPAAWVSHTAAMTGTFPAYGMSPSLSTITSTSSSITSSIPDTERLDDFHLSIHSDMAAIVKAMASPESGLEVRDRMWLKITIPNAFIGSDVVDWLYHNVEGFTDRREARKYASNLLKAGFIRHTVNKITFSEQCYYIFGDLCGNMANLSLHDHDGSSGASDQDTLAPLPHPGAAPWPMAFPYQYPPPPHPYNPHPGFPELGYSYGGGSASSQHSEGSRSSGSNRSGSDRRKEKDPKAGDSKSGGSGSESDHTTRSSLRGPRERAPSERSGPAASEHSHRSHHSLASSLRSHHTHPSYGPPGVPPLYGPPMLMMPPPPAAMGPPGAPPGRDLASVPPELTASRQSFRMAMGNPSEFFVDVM
UniProt Q5JPH6: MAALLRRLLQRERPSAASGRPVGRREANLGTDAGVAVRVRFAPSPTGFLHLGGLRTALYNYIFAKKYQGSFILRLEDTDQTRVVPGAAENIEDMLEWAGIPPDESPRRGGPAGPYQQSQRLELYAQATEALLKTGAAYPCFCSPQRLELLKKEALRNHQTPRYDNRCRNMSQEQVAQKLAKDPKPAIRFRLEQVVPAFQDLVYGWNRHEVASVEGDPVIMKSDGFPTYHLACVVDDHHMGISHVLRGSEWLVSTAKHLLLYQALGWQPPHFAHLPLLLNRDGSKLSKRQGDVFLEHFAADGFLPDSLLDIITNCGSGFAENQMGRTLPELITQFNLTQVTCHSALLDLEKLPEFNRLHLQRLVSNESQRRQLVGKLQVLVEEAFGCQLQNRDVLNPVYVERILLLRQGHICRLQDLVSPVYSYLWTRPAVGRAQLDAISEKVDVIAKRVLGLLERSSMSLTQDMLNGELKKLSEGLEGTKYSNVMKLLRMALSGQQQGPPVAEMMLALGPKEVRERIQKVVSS
UniProt Q9H8V3: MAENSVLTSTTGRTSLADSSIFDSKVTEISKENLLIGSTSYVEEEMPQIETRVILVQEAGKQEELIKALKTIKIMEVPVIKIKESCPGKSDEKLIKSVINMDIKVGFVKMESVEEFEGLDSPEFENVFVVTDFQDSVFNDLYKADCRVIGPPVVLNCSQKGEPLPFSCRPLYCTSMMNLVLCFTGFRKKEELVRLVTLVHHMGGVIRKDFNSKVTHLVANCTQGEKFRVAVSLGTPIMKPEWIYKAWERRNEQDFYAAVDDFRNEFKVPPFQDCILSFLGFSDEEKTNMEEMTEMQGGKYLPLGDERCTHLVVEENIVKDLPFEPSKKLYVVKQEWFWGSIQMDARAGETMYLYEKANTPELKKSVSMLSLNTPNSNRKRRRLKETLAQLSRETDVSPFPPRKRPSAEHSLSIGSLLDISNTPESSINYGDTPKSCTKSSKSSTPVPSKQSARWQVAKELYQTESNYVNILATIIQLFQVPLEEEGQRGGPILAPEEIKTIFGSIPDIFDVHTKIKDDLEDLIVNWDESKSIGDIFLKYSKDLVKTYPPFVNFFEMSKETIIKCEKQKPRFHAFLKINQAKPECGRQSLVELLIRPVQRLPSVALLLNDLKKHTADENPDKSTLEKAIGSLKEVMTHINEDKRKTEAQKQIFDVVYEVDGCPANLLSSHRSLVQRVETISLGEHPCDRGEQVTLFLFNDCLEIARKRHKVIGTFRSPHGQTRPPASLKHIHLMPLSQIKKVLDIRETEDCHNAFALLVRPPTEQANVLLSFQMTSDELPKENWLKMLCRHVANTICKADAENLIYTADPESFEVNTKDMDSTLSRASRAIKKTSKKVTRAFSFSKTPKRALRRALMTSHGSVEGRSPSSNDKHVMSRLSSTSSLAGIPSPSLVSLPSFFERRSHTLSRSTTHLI
UniProt Q14126: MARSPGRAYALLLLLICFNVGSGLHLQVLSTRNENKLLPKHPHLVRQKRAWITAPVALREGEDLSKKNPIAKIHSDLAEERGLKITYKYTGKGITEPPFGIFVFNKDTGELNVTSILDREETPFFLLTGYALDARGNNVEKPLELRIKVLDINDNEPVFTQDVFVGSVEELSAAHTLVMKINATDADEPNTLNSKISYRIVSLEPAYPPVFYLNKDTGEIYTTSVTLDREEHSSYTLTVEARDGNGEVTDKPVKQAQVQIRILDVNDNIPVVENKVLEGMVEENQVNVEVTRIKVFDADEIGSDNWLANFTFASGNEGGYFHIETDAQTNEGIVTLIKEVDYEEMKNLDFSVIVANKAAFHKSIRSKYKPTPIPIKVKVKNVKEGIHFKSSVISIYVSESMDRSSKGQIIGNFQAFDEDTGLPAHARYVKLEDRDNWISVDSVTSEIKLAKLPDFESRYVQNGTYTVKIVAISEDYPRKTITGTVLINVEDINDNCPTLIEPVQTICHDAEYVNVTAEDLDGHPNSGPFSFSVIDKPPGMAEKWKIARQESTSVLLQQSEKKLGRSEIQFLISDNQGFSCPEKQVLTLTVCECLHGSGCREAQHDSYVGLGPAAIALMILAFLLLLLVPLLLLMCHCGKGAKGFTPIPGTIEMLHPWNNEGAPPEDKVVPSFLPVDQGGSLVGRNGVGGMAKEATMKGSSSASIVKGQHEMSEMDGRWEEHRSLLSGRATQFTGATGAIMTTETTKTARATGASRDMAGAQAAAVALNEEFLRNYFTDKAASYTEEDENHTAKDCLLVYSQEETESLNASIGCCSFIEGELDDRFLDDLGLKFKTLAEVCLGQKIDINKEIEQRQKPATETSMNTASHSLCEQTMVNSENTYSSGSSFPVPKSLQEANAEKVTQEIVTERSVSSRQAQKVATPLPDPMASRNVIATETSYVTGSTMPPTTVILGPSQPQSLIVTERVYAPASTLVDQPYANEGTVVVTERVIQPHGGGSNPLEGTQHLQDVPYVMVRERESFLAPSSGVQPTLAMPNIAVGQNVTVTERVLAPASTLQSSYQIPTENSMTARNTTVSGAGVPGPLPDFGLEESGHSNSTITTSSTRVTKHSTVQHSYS
UniProt Q01658: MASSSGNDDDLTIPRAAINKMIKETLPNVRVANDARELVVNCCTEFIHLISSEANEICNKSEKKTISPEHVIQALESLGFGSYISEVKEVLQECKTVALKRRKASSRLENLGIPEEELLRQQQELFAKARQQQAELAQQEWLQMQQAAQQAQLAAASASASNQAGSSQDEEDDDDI
UniProt Q9BQC3: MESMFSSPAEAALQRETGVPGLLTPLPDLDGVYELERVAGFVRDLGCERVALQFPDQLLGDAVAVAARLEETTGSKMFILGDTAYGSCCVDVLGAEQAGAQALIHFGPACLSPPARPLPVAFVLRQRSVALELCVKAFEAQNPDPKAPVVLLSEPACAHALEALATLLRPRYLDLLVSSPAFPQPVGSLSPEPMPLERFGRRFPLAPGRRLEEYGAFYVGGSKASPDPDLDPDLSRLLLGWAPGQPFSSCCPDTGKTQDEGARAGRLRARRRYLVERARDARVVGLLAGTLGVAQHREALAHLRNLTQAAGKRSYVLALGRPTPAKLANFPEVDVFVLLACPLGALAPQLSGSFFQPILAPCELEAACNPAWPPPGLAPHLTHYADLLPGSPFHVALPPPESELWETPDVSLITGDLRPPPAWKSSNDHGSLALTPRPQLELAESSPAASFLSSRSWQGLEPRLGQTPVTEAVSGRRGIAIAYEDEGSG
UniProt Q16254: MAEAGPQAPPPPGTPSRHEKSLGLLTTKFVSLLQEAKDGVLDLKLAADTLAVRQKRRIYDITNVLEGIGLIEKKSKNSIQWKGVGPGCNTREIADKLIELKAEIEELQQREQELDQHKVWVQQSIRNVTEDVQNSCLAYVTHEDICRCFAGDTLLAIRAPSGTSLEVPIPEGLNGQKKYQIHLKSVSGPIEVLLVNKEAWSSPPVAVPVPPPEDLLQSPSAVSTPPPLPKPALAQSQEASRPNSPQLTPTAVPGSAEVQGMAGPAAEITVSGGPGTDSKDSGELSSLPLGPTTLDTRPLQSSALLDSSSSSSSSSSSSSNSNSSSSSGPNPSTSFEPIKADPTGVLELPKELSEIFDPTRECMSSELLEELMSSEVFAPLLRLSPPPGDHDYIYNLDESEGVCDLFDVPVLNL
UniProt P63167, whole entry, looked up: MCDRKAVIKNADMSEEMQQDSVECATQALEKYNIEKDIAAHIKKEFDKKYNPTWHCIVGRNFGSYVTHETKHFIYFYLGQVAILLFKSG
UniProt Q13409, whole entry, looked up: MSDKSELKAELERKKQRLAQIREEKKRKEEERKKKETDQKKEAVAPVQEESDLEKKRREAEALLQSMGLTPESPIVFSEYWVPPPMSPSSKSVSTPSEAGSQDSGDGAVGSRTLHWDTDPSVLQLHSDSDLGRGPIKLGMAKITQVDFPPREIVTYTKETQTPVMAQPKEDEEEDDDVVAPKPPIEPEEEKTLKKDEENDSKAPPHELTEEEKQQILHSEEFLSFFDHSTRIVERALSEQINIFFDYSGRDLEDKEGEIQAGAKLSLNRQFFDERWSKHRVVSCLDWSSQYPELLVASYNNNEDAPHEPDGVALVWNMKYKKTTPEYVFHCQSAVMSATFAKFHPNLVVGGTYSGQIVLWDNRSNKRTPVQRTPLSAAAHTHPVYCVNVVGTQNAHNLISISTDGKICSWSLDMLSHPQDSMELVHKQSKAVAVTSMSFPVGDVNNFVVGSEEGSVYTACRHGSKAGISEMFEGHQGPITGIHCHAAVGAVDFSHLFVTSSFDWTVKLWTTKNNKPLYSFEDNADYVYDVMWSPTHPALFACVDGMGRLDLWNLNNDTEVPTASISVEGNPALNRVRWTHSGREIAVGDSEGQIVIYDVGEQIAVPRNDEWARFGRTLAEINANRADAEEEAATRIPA

Compound: C1=CC(=CC=C1C2=NC3=C(N2)C=C(C=C3)C(=O)N)OC4=CC=C(C=C4)Cl
Experiment: log2 fold change, soluble protein after heating vs DMSO (PISA); higher = thermal stabilisation; K562 lysate, 10 uM; active = over 0.2 and 3.5 SD of the protein, either way, in both replicates (recomputed)
Summary of the method: (§1)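 Dounce homogenisation of K562 pellets in PBS pH 7.4 with 1 mM MgCl2 produced a crude extract, used at 1 mg/mL protein. Exposure to 10 μM compound lasted 30 min, and aliquots were then heated for 3 min across 48°C-58°C, pooled and brought to 0.5% NP-40 at 4°C. The supernatant after 21,000xg for 90 min was quantified by TMTpro 16plex LC-MS/MS with channel sums equalised. Duplicate values are given as log-two fold change in thermal stability relative to solvent controls.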

log2 fold change, inactive:
DPY19L4 (UniProt Q7Z388) 0.016, EFCAB14 (UniProt O75071) 0.043, DYRK1A (UniProt Q13627) -0.004, DPF2 (UniProt Q92785) -0.01, DSTN (UniProt P60981) -0.007, ECHS1 (UniProt P30084) -0.022, EFTUD2 (UniProt Q15029) 0.006, EDF1 (UniProt O60869) -0.001, DTYMK (UniProt P23919) 0.01, EEFSEC (UniProt P57772) -0.044, DSC2 (UniProt Q02487) 0.049, DXO (UniProt O77932) 0.019, DUSP23 (UniProt Q9BVJ7) -0.034, EGLN1 (UniProt Q9GZT9) 0.034, EEF1B2 (UniProt P24534) 0.009, EAPP (UniProt Q56P03) 0.018, EDEM3 (UniProt Q9BZQ6) 0.002

Compound: C1=CC2=C(C=CC(=C2)/C=C\3/C(=O)NC(=NCC4=CC=CS4)S3)N=C1
Experiment: as above
Summary of the method: as §1

log2 fold change, inactive:
DVL3 (UniProt Q92997) -0.047, EEF1AKNMT (UniProt Q8N6R0) -0.039, DUS4L (UniProt O95620) 0.007, DPH6 (UniProt Q7L8W6) 0.008, EFL1 (UniProt Q7Z2Z2) 0.002, EARS2 (UniProt Q5JPH6) -0.076, ECT2 (UniProt Q9H8V3) 0.011, DSG2 (UniProt Q14126) -0.02, DRAP1 isoform 2 (UniProt Q14919) -0.015, DYNC1LI1 (UniProt Q9Y6G9) 0.002, EHD2 (UniProt Q9NZN4) -0.063, E2F3 (UniProt O00716) -0.032, DR1 (UniProt Q01658) 0.03, DYNC1H1 (UniProt Q14204) 0.028, DUS3L (UniProt Q96G46) 0.059, DPH2 (UniProt Q9BQC3) -0.002, DYNC1LI2 (UniProt O43237) -0.011, EEA1 (UniProt Q15075) -0.011, DSCC1 (UniProt Q9BVC3) -0.036, ECI1 (UniProt P42126) 0.003, E2F4 (UniProt Q16254) 0.024, DYNLL1 (UniProt P63167) 0, DYNC1I2 isoform 2 (UniProt Q13409) -0.088, DPY19L4 (UniProt Q7Z388) 0.16, EFCAB14 (UniProt O75071) -0.036, DYRK1A (UniProt Q13627) 0.186, DPF2 (UniProt Q92785) 0.016, DSTN (UniProt P60981) 0.014, ECHS1 (UniProt P30084) -0.009, EFTUD2 (UniProt Q15029) 0, EDF1 (UniProt O60869) -0.022, DTYMK (UniProt P23919) -0.017, EEFSEC (UniProt P57772) -0.022, DSC2 (UniProt Q02487) -0.034, DXO (UniProt O77932) -0.01, DUSP23 (UniProt Q9BVJ7) 0.057, EGLN1 (UniProt Q9GZT9) 0.028, EEF1B2 (UniProt P24534) -0.005, EAPP (UniProt Q56P03) 0.098, EDEM3 (UniProt Q9BZQ6) -0.001
